Source: PubChem BioAssay AID686938 (Drosophila RNAi Screening Center, 2013)

Assay: 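Looking for CRAC channel components and the factors controlling them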 (primary screen)
Cells: Drosophila S2R+ cells
Reagent: long dsRNA against Drosophila genes, about 0.25 µg dsRNA per well, roughly 10,000 cells
Duration: 5 days of knock-down before the calcium assay
Treatment: thapsigargin (SERCA pump blocker) to empty calcium stores; entry signal taken 4 min after adding it
Read-out: 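Per-well fluo-4 fluorescence in two replicates, unnormalised, measured in resting cells and 4 min after store depletion by the SERCA blocker thapsigargin; ratio of the two present in few wells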
Reading the numbers: calcium entry signal: higher = stronger calcium signal after store depletion; resting calcium signal: higher = higher resting calcium signal
Hit rule: 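Called when the plate z-score of the entry-to-rest ratio, mean of duplicates, falls below −3; wells with low overall dye signal (Fmax z below −2) or more than five off-targets excluded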
Calls: active = strongly reduced calcium entry; inactive = no strong reduction
The deposit covers about 23,000 reagents; this is an unselected part of those that have a named target and a result. Of all reagents, 75 (0.33%) are marked active. 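Raw plate signals without normalisation; calls rest on plate z-scores that were not deposited; ratio present for only 364 wells.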 Unmarked entries are inactive. Names joined by + are all predicted targets of the reagent. The record does not give: the dose of the treatment.

| predicted target | DRSC id | calcium entry signal, replicate 1 (fluorescence units) | calcium entry signal, replicate 2 (fluorescence units) | resting calcium signal, replicate 1 (fluorescence units) | resting calcium signal, replicate 2 (fluorescence units) |
| --- | --- | --- | --- | --- | --- |
| CG31275 | DRSC16919 | 2.52e7 | 4.18e7 | 1.29e7 | 4.35e7 |
| psd | DRSC03131 | 3.65e7 | 3.93e7 | 1.74e7 | 1.78e7 |
| Nmdmc | DRSC16760 | 3.16e7 | 4.25e7 | 1.38e7 | 1.84e7 |
| Polr2A | DRSC20280 | 1.89e7 | 1.64e7 | 1.13e7 | 1.01e7 |
| CG43894 | DRSC09225 | 3.95e7 | 2.45e7 | 1.90e7 | 1.10e7 |
| CG43894 | DRSC10123 | 2.53e7 | 3.31e7 | 1.46e7 | 1.66e7 |
| bmm | DRSC10502 | 3.15e7 | 4.26e7 | 1.52e7 | 2.80e7 |
| CG46491 | DRSC06565 | 2.24e7 | 2.22e7 | 1.00e7 | 1.09e7 |
| CG46491 | DRSC06566 | 4.87e7 | 4.48e7 | 2.00e7 | 2.17e7 |
| CG34301 | DRSC12704 | 4.03e7 | 5.10e7 | 1.91e7 | 2.68e7 |
| Spt5 | DRSC07556 | 1.97e7 | 2.20e7 | 1.33e7 | 1.39e7 |
| ADD1 | DRSC07135 | 3.27e7 | 3.21e7 | 1.38e7 | 1.63e7 |
| CG31206 | DRSC13388 | 5.77e7 | 3.84e7 | 2.87e7 | 2.00e7 |
| CG13216 | DRSC06338 | 1.86e7 | 3.73e7 | 1.05e7 | 1.42e7 |
| GlcAT-P | DRSC10603 | 4.75e7 | 3.43e7 | 2.95e7 | 1.39e7 |
| GlcAT-P | DRSC10604 | 3.46e7 | 4.83e7 | 1.63e7 | 2.05e7 |
| CG31683 + CG18858 | DRSC02703 | 3.98e7 | 4.94e7 | 1.94e7 | 2.01e7 |
| Spn42Da | DRSC05025 | 2.36e7 | 2.87e7 | 1.11e7 | 1.22e7 |
| CG2701 | DRSC18590 | 3.66e7 | 3.93e7 | 1.72e7 | 1.74e7 |
| CG17929 | DRSC15291 | 3.33e7 | 5.70e7 | 1.72e7 | 8.02e7 |
| Or33a | DRSC03386 | 3.47e7 | 1.70e7 | 1.58e7 | 8.82e6 |
| Nep1 | DRSC18388 | 3.31e7 | 3.05e7 | 1.46e7 | 1.38e7 |
| Nep1 | DRSC18389 | 3.49e7 | 4.47e7 | 1.77e7 | 2.32e7 |
| Reg-5 | DRSC04647 | 4.50e7 | – | 2.15e7 | – |
| AstA | DRSC14634 | 4.20e7 | 3.45e7 | 2.09e7 | 1.49e7 |
| Pep | DRSC11252 | 3.14e7 | 3.97e7 | 1.59e7 | 2.95e7 |
| blot | DRSC09485 | 2.48e7 | 3.21e7 | 1.22e7 | 1.57e7 |
| blot | DRSC11328 | 3.93e7 | 4.60e7 | 1.83e7 | 3.06e7 |
| CG17221 | DRSC00487 | 3.04e7 | 2.27e7 | 1.52e7 | 1.15e7 |
| CG43446 | DRSC13458 | 5.79e7 | 3.74e7 | 2.80e7 | 1.69e7 |
| Gart | DRSC03481 | 3.32e7 | 4.05e7 | 1.64e7 | 1.92e7 |
| flz | DRSC07109 | 2.77e7 | 3.16e7 | 1.26e7 | 1.41e7 |
| CG34183 | DRSC01099 | 2.96e7 | 3.80e7 | 1.55e7 | 1.55e7 |
| sif | DRSC08759 | 4.08e7 | 4.99e7 | 2.10e7 | 2.28e7 |
| sif | DRSC11395 | 3.69e7 | 5.08e7 | 1.68e7 | 2.04e7 |
| sif | DRSC22065 | 3.74e7 | 6.08e7 | 1.71e7 | 2.99e7 |
| sif | DRSC22828 | 2.46e7 | 4.04e7 | 1.35e7 | 1.84e7 |
| CG31688 | DRSC02117 | 5.52e7 | 5.40e7 | 2.65e7 | 2.32e7 |
| CG31688 | DRSC02682 | 4.14e7 | 5.50e7 | 2.19e7 | 2.35e7 |
| CG32533 | DRSC19443 | 4.00e7 | 4.18e7 | 1.73e7 | 1.67e7 |
| CG32533 | DRSC19553 | 4.15e7 | 4.44e7 | 2.29e7 | 2.07e7 |

Records listed so far whose gene name begins with N or n (3):
| predicted target | DRSC id | calcium entry signal, replicate 1 (fluorescence units) | calcium entry signal, replicate 2 (fluorescence units) | resting calcium signal, replicate 1 (fluorescence units) | resting calcium signal, replicate 2 (fluorescence units) |
| --- | --- | --- | --- | --- | --- |
| Nmdmc | DRSC16760 | 3.16e7 | 4.25e7 | 1.38e7 | 1.84e7 |
| Nep1 | DRSC18388 | 3.31e7 | 3.05e7 | 1.46e7 | 1.38e7 |
| Nep1 | DRSC18389 | 3.49e7 | 4.47e7 | 1.77e7 | 2.32e7 |
